Reference: US7759459B2, “Fluorescent assays for protein kinases” (Albert Einstein College of Medicine of Yeshiva University, priority 2003, dated 2010)

Tested on: PKC in mitotic HeLa cell lysates
Test: PKC activity in mitotic HeLa cell lysates
Type: biochemical
Settings: 4.5 μM staurosporine; substrate peptide 2

CN[C@@H]1C[C@H]2O[C@@](C)([C@@H]1OC)n1c3ccccc3c3c4c(c5c6ccccc6n2c5c31)C(=O)NC4 [staurosporine] was tested, and the “effect of inhibitor on fluorescence increase upon lysate addition” value was “blocks the increase in fluorescence intensity”.
